In the supplement of paper PMC3334620:
The full ranking holds about 33,000 sequences; the median of “E-score (-0.5 to 0.5)” is about -0.0059, and the highest 2% start at about 0.26. Some of the results follow.

Target: T1, Cin5 (UniProt P40917)
T1 sequence: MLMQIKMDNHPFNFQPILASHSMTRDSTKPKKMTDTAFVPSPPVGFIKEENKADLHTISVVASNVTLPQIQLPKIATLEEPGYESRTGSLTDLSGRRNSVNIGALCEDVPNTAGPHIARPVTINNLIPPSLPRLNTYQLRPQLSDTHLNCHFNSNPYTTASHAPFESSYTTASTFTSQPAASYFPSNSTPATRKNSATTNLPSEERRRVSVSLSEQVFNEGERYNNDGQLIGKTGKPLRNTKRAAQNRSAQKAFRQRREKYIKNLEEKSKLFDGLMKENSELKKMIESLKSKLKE
Test: PBM E-score (8-mer binding enrichment) (E-score (-0.5 to 0.5)); higher = stronger / more preferred TF binding
Conditions: protein concentration: 100 nM; construct: GST-full length
In short: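 Universal all-10-mer Agilent arrays, fresh or stripped once, were converted to double-stranded form by primer extension. GST-tagged yeast transcription factors from PURExpress in vitro transcription/translation, full-length or DNA-binding domain only, were applied at about 100-200 nM and detected with fluorescent anti-GST. After masliner normalisation, the Universal PBM Analysis Suite scored each ungapped eight-base word together with its reverse complement by E-score.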

Sequence | PBM E-score
AGAATTGG | 0.116
CCGGAAAA | 0.0656
AATTTGGA | -0.0245
CAAAGTAA | 0.168
ACCCTTCG | -0.189
ACTTCAAA | -0.116
GATAAAGA | 0.0787
ACAGATTG | 0.104
CACTCATA | 0.15
CGATGCCA | -0.196
AATTGTTG | -0.0185
AAGGGCTC | -0.374
ACCACCTG | -0.0268
GCAGTCAC | -0.109
GTGACTCA | -0.0591
ACGCGCAA | 0.122
CAAACCGC | -0.016
ATGCACAT | 0.0691
ACTTCCAA | 0.0556
ATTTGTCA | 0.164
ATGTAAGA | 0.274
ACACGACG | -0.0075
AATCAAGT | 0.164
AACTATGT | 0.0917
ACTAGAAT | 0.196

Sequence | PBM E-score
ACCAGGGA | -0.145
CCGGGGAG | -0.113
AAAGAAGG | -0.0513
AGCATTTG | 0.0821
ATAATGTC | 0.248
GCGAAAGC | -0.0639
AGTACAGG | 0.0687
CGGCTGGC | -0.191
CCGTAACA | -0.0307
ACTTCCCA | 0.00063
CCTGTAAG | -0.0519
GCATCAAC | 0.0847
AAAATTTA | -0.0287
CGAAAAAG | 0.0943
ACGCCCGA | -0.032
CCTTTAAG | -0.107
ACCGGCGG | -0.15
TATTGAGA | 0.225
CTAGGTGC | -0.145
ACAGAGAA | 0.0544
CGGCCGAC | -0.0403
GTAAGTCA | 0.0491
ACTGGCGG | 0.0401
GTGGAAGA | -0.192
CGACCGGA | -0.124

A few values from the results shown:
For PBM E-score, CCTGTAAG has -0.0519
For PBM E-score, CGACCGGA has -0.124
For PBM E-score, GCGAAAGC has -0.0639

Remaining list, next part:

Sequence | PBM E-score
CCAGTAAA | 0.135
TCATCCCA | -0.0358
AGTATTCA | 0.165
GACTCTAA | 0.0313
ACCGAGTG | -0.141
TCATAAGA | 0.0448
CGCGGTAC | -0.0212
TACATCCA | 0.0256
AGGCTGCG | -0.0969
CCTGGGCC | -0.283
TAATTTCA | 0.181
ACCAAAAG | -0.00654
GGGGCATA | -0.0532
AATGCAGC | -0.198
CCGGATAG | 0.0797
CAACGTCA | -0.00881
TCCAAAAA | 0.0023
GAGACCGA | -0.118
AGCCTGCC | -0.106
GGCGCCGA | 0.0266
AACGAACA | 0.161
AAGACTTC | -0.221
CCGATACG | -0.205
ACTCCTGG | -0.216
CCGTCAGG | -0.184

Sequence | PBM E-score
GTAATGGA | 0.254
GACCATGC | -0.108
TTAATAAA | 0.287
TGACTCCA | -0.17
GAATTGGA | 0.104
CGTTGCCC | -0.169
CCCCTAAG | -0.119
CACGTAGC | -0.252
CATGAACC | 0.184
ATACAAAC | 0.257
GTACTTAA | -0.0728
CACAGGTC | -0.18
ATAGGCCG | -0.185
CACGTTCG | -0.101
CTAGGAGA | -0.235
AACCGCGT | 0.0958
CGCGTGGA | -0.191
GTTAGGGA | -0.0839
CGTGGCAG | -0.0809
ATAGTGGG | 0.0536
ACCACGCG | -0.0218
GTCAACCA | -0.158
ATGACGAC | 0.0658
ACTAAACA | 0.258
AACCAACA | 0.0494

Looked up one by one from the entries so far:
Sequence | PBM E-score
GTACTTAA | -0.0728
CACGTTCG | -0.101
GACCATGC | -0.108
AACCGCGT | 0.0958

A run of entries from further up, as a working copy:
Sequence | PBM E-score
AGTATTCA | 0.165
GACTCTAA | 0.0313
ACCGAGTG | -0.141
TCATAAGA | 0.0448
CGCGGTAC | -0.0212

Continued:

Sequence | PBM E-score
CGTTTATC | 0.0462
ATCATCCC | 0.103
CGTCATTA | 0.191
ACCCCCTG | -0.454
AGGTGAGC | -0.00093
GCCTGACC | -0.243
AGTGGTGC | -0.125
ACTCACGG | 0.08
ACCGTGGA | -0.116
CAGTAAGA | 0.0856
CCGACGAA | 0.0828
ACGTCTAG | -0.101
CCTGGCTC | -0.0734
GCCTAGGC | -0.226
AGTGACCG | -0.125
CACTCAGG | -0.0156
AACCCACC | 0.179
AACATAAG | 0.328
GACACCGA | -0.0731
AGCAGCTA | 0.0637
CCAATCGA | 0.00109
GATACTTA | -0.0873
ATCTACTA | 0.204
AGTCTCAG | -0.123
ATGTTAAC | 0.136

Sequence | PBM E-score
AAGCCATG | -0.149
ACTGTTTA | -0.0234
ATCTCGCG | 0.266
GAGCACAC | -0.0701
CTTCCAAG | -0.0346
GTTGCATA | 0.0614
CGAATCTA | 0.0271
GATCCCCA | -0.0318
TGGCAGAA | 0.0418
CCCTGTTC | -0.265
CAACTGGG | -0.18
CGCCCGCA | 0.13
CACGCTAA | -0.0768
AGCATGCC | -0.0948
GGAAGTCA | 0.0165
AGTGCCTG | -0.116
GGGGTCAA | -0.0137
AAACGAGA | 0.0715
AATGCTTA | 0.276
AGGCATGG | -0.115
ACCCATAA | 0.162
GCTGCCCC | -0.22
CAGTTAAC | 0.0905
GCCCCCTA | -0.376
AGATCGAG | 0.0463

Sequence | PBM E-score
CGTAAATA | 0.0783
ATTTTCCG | 0.329
AATCTTGA | -0.0469
ATTCGTTA | 0.146
CGGACTGC | -0.0755
AATGCATG | 0.183
ATTGAGCG | 0.0795
GGTTTCAA | 0.143
GCCCGGTA | -0.115
GTCGATCA | 0.0309
ACTTTCTC | -0.0512
AATAGAAC | 0.127
CAGTTGAC | 0.145
CCGCGCCA | -0.0465
GCGTTGAA | 0.015
AGCGCCCG | -0.14
ACACCGTC | -0.175
CACGGCCC | -0.213
CTTGGGAA | -0.0578
CTAGTAGA | -0.00964
AACTAGAA | 0.0901
GTCAGGAC | -0.116
CCTAACCC | -0.302
ACGATGCT | -0.00619
ATTTTCGA | -0.0217

Sequence | PBM E-score
GATGTCCC | -0.00702
GTGGTCTA | -0.107
GCCTTAGC | -0.168
AAACTCCC | -0.0302
AAGATTAG | 0.13
GCAGGCCC | -0.388
CTTCAACC | 0.0799
CCCATTCC | -0.153
ATATGGAC | -0.0329
ACCCAACG | 0.0778
ATCCATAC | 0.108
GGGAGTAC | -0.129
ATGAAATA | 0.18
GGGTAGAA | -0.112
GCCCTGAA | -0.0267
TGAACTCA | 0.00043
CCTAAAGC | -0.108
AATCGCTA | -0.0414
CGAATCCG | -0.0137
CACGCTCC | -0.28
CAGATATA | 0.119
ATTCGCGA | 0.0972
CCCCCCCG | -0.447
AAAAGCCT | -0.319
ATAGTCAT | 0.0402

Sequence | PBM E-score
ATTCAACA | 0.102
GAAGTCAA | 0.124
AGCCTTTC | -0.229
CCTTTAAC | -0.0107
AATCCTTA | -0.0597
ATACACTA | 0.224
AGCCTCCC | -0.243
GCCCTCGC | -0.0926
GTGTATAA | -0.00672
ATGTGGCG | 0.0709
CCCGGGCC | -0.278
AATAGGGT | 0.122
CCGACGCC | -0.00092
CACACTCA | 0.138
CCGACTGA | -0.165
AGATCGGA | 0.157
CCTGATTA | 0.252
AATTGTCC | 0.0822
ACAGTACA | 0.127
